This note sets out measurements from US12433872B2, “Treatment of Acanthamoeba or Balamuthia trophozoites and/or cysts” (GEORGIA STATE UNIVERSITY RESEARCH FOUNDATION, INC., priority 2018, dated 2025).

Assay type in all cases: cell-based
What all share (conditions): selectivity index, A549 IC50 versus 30 day MCC

The test system of data set [1] is Acanthamoeba culbertsoni (ATCC30171) cysts. The data set can be described thus: Encystation drug susceptibility / excystation viability assay, 30 day recovery, A. culbertsoni cysts. How it is done:
(§1) The trophozoites of Acanthamoeba were harvested by mechanical detachment and collected via centrifugation at 4000 rpm at 4° C. for 5 minutes. The trophozoites were washed in 10 mL of Neff's Encystment Media (NEM). NEM composition is 20 mM Tris-HCL [pH 8.8] (2.43 g/L), 100 mM KCL (7.46 g/L), 8 mM MgSO4 (962.96 mg/L), 0.4 mM CaCL2 58.81 mg/L) and 1 mM NaHCO3 (84.01 mg/L) (Neff et al. 1964). All reagents were bought from Sigma Aldrich. Centrifugation of the trophozoites was repeated to ensure any residual growth medium was removed. The pellet was resuspended in a final volume of 15 mL of NEM, cultured in 75 cm^2 corning tissue culture flasks and incubated vertically in a thermal shaker, shaken at 100 rpm at 37° C. for 72 hours to produce fully matured cysts. NEM was supplemented with 250 μg of penicillin/streptomycin. Fresh cysts were produced each time for any experimentation.
(§2) At 72 hours the cysts were harvested using a cell scraper and collected via centrifugation at 4000 rpm at 25° C. for 10 minutes. The cells were washed twice in 10 mL of HyClone™ water, Molecular Biology Grade, and centrifugation was repeated to ensure the removal of any residual NEM. The cell suspension was washed with 0.5% sodium dodecyl sulphate (SDS) to remove any remaining trophozoites and immature cysts. The fully mature cysts were further washed twice with 10 mL of HyClone™ water and 1% NEM, centrifugation was repeated to remove any residue of SDS. The concentration of mature cysts was determined using a haemocytometer and adjusted to 1×10^4 cysts/mL in NEM.
(§3) All test compounds were prepared as 5 mg/mL stock solutions in dimethylsulfoxide (DMSO). All compounds were diluted in NEM, serially diluted in 2-fold dilutions 6 or 11 times, yielding a screening concentration range of 1.56 μg/mL to 50 μg/mL or 48 ng/mL to 50 μg/mL with a final highest screening concentration of 1% DMSO.
(§4) Based on this, a strain specific test period and also a 30 day non-specific recovery time were considered. For the 30 day recovery period, the media was changed 5 times to ensure the contents of wells dis not evaporate and have an effect within the results of the assay.
(§5) 90 μL of 1×10^4 Cysts/ml and 10 μL of experimental compounds from the screening plates were produced according to the protocols above and combined into a Corning clear 96 well treated tissue culture plate. Control wells include cysts in non-drug treated, 1% DMSO, NEM (to be used for negative growth control), NEM Blank, PG blank and cysts in non-drug treated, 1% DMSO, PG (to excyst cells and to be used for positive growth control). The total well volume for all wells was 100 μL. The drug exposed plates were screened at 27° C. for 6 or 24 hours only. At the exposure time point the plates were centrifuged at 4000 rpm at 25° C. for 10 minutes and washed twice with phosphate-buffered saline (PBS) to remove any residual experimental compound.
(§6) Once the plate(s) underwent the Encystation drug susceptibility process, all wells except the negative growth control and NEM blank wells received PG growth medium. All plates were left to recover at 27° C. for the strain specific time period of 5, 9 or 11 days depending on the species of Acanthamoeba. At each of the strain specific time points the plates were removed from incubation and microscopically analysed (qualitatively) for the excystation process for the emergence of excysted viable trophozoites or residual cysts. The presence of excysted trophozoites indicated viable amoebae (non-cystistatic or cysticidal—no effect) and the absence of excystation was considered as cystistatic/cysticidal effects.

The subject of data set [2] is Acanthamoeba healyi cysts. The data set can be described thus: Encystation drug susceptibility / excystation viability assay, 30 day recovery, A. healyi cysts. The protocol:
as §1, §2, §3, §4, §5, §6

The test system of data set [3] is Acanthamoeba castellanii (ATCC50370) cysts. The experiment in a line: Encystation drug susceptibility / excystation viability assay, 30 day recovery, A. castellanii cysts. How it is done:
as §1, §2, §3, §4, §5, §6

For `COc1cc(Oc2c(F)cc(-c3nc4ccc(C(=N)NC(C)C)cc4[nH]3)cc2F)ccc1-c1nc2ccc(C(=N)NC(C)C)cc2[nH]1` [Compound A, 2-(3,5-Difluoro-4-(4-(6-(N-isopropylcarbamimidoyl)-1H-benzo[d]imidazol-2-yl)-3-methoxyphenoxy)phenyl)-N-isopropyl-1H-benzo[d]imidazole-6-carboximidamide], in data set [1], the “A. culbertsoni SI” value was 4.14. The “A. healyi SI” value in data set [2] worked out at 4.14. For the same molecule, the “A. castellanii SI” value in data set [3] amounted to 0.69.

`CC(C)NC(=N)c1ccc2nc(-c3cc(F)c(Oc4ccc(-c5nc6ccc(C(=N)NC(C)C)cc6[nH]5)c(Cl)c4)c(F)c3)[nH]c2c1` [Compound B, 2-(2-Chloro-4-(2,6-difluoro-4-(6-(N-isopropylcarbamimidoyl)-1H-benzo[d]imidazol-2-yl)phenoxy)phenyl)-N-isopropyl-1H-benzo[d]imidazole-6-carboximidamide]: the “A. culbertsoni SI” value in data set [1] worked out at 5.94. In addition, the “A. healyi SI” value in data set [2] is 4.45. Moreover, the “A. castellanii SI” value in data set [3] turned out to be 1.78.

With `CC(C)NC(=N)c1ccc2nc(-c3cc(F)c(Oc4ccc(-c5nc6ccc(C(=N)NC(C)C)cc6[nH]5)c(F)c4)c(F)c3)[nH]c2c1` [Compound C, 2-(3,5-Difluoro-4-(3-fluoro-4-(6-(N-isopropylcarbamimidoyl)-1H-benzo[d]imidazol-2-yl)phenoxy)phenyl)-N-isopropyl-1H-benzo[d]imidazole-6-carboximidamide], the “A. culbertsoni SI” value in data set [1] was determined as 3.01. Moreover, in data set [2], the “A. healyi SI” value is 1.51. The “A. castellanii SI” value in data set [3] stood at 1.51.

On to `CC(C)NC(=N)c1ccc2nc(-c3ccc(Oc4ccc(-c5nc6ccc(C(=N)NC(C)C)cc6[nH]5)c(Br)c4)cc3Br)[nH]c2c1` [Compound D, 2,2′-(Oxybis(2-bromo-4,1-phenylene))bis(N-isopropyl-1H-benzo[d]imidazole-6-carboximidamide)], for which the “A. culbertsoni SI” value in data set [1] turned out to be 3.28. In addition, the “A. healyi SI” value in data set [2] is reported as 1.23. Moreover, the “A. castellanii SI” value in data set [3] amounted to 1.23.

Consider `CC(C)NC(=N)c1ccc2nc(-c3ccc(Oc4ccc(-c5nc6ccc(C(=N)NC(C)C)cc6[nH]5)c(Br)c4)cc3F)[nH]c2c1` [Compound E, 2-(2-Bromo-4-(3-fluoro-4-(6-(N-isopropylcarbamimidoyl)-1H-benzo[d]imidazol-2-yl)phenoxy)phenyl)-N-isopropyl-1H-benzo[d]imidazole-6-carboximidamide], for which the “A. culbertsoni SI” value in data set [1] is 2.07. In addition, in data set [2], the “A. healyi SI” value came out at 2.07. Also, the “A. castellanii SI” value in data set [3] amounted to 1.38.

For `CC(C)NC(=N)c1ccc2nc(-c3cc(F)c(Oc4ccc(-c5nc6ccc(C(=N)NC(C)C)cc6[nH]5)c(Br)c4)c(F)c3)[nH]c2c1` [Compound F, 2-(2-Bromo-4-(2,6-difluoro-4-(6-(N-isopropylcarbamimidoyl)-1H-benzo[d]imidazol-2-yl)phenoxy)phenyl)-N-isopropyl-1H-benzo[d]imidazole-6-carboximidamide], in data set [1], the “A. culbertsoni SI” value is recorded as 2.60. The “A. healyi SI” value in data set [2] was 3.90. Besides, the “A. castellanii SI” value in data set [3] worked out at 2.60.

Regarding `CC(C)NC(=N)c1ccc2nc(-c3ccc(Oc4cc(F)c(-c5nc6ccc(C(=N)NC(C)C)cc6[nH]5)c(F)c4)cc3Br)[nH]c2c1` [Compound G, 2-(2-Bromo-4-(3,5-difluoro-4-(6-(N-isopropylcarbamimidoyl)-1H-benzo[d]imidazol-2-yl)phenoxy)phenyl)-N-isopropyl-1H-benzo[d]imidazole-6-carboximidamide], the “A. culbertsoni SI” value in data set [1] stood at 3.44. In addition, the “A. healyi SI” value in data set [2] was determined as 3.44. Also, the “A. castellanii SI” value in data set [3] worked out at 3.44.

On to `CC(C)NC(=N)c1ccc2nc(-c3ccc(Oc4ccc(-c5nc6ccc(C(=N)NC(C)C)cc6[nH]5)c(F)c4F)cc3Br)[nH]c2c1` [Compound H, 2-(2-Bromo-4-(2,3-difluoro-4-(6-(N-isopropylcarbamimidoyl)-1H-benzo[d]imidazol-2-yl)phenoxy)phenyl)-N-isopropyl-1H-benzo[d]imidazole-6-carboximidamide], for which the “A. culbertsoni SI” value in data set [1] was determined as 1.65. In addition, the “A. healyi SI” value in data set [2] stood at 1.65. Besides, the “A. castellanii SI” value in data set [3] is reported as 1.65.
